Consider one substance from patent US7011833.

Sequences of proteins named here, by UniProt entry; tags and fusion partners are left off. A change or cut given only in a name is not applied to a line headed by its entry. Residues count along the entry.
UniProt P09793, residues 36-161: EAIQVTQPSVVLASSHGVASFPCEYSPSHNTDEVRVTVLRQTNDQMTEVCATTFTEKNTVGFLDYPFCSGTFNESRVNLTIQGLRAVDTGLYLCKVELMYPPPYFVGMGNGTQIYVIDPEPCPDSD
UniProt P42082: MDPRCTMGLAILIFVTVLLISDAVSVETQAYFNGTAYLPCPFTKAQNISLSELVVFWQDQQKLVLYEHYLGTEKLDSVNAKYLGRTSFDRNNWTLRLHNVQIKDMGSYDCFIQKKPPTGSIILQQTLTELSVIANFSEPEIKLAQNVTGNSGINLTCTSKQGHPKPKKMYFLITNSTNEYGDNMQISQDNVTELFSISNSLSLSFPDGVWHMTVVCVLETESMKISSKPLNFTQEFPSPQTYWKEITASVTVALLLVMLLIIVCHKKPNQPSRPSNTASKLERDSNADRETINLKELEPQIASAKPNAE

The target of assay [1] is T1, murine CD28 (murine) (UniProt P31041).
T1 sequence (looked up): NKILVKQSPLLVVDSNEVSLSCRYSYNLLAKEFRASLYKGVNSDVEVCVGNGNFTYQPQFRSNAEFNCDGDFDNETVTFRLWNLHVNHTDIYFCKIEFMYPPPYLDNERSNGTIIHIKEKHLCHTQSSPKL
The experiment in a line: FACS or Biacore (not told which for which pair). (In general: In SPR one partner is held on a chip, and binding of the other changes the refractive index at the surface.)

Assay [2] has as its target murine CTLA-4 (murine) (UniProt P09793). The assay can be described thus: FACS or Biacore (not told which for which pair).

These are yes or no findings as the source states them, for the method shown. Some binding calls cover weakened binding; strength is not graded here.

Turning to “murine B7-2-IgG2a fusion protein (from UniProt P42082 24-244; P01863 98-330) (Fc fusion)”, the binding entry in assay [1] and in assay [2] was “binds” each time.
